Test results: patent EP1094711B1, “METHODS FOR ERADICATION OF NANOBACTERIA” (Nanobac Oy, priority 1998, dated 2000)

Tested on: nanobacteria
Test: Antibiotic sensitivity test by Minimal Inhibition Concentration (MIC), 96-well plates, absorbance at 650 nm
Type: cell-based
Conditions: light or radiation study, 288 h, read-out: MIC 50
Procedure: Antibiotic sensitivity tests were carried out by measuring Minimal Inhibition Concentration (MIC), a common practice in clinical microbiology.
The tests were performed in 96-well plates. DMEM (commercial cell culture medium) containing 10% gamma-irradiated fetal bovine serum (FBS)(dose about 3 Mrads; this treatment inactivates nanobacteria in the serum so that the basic medium is sterile) was used as the basic culture medium. These components are commercially available, e.g., from Gibco. The antibiotic stock solutions were sterile filtered through 0.2 micrometer filters. The stock solutions were then serially diluted (into the basal culture medium) to provide a final starting concentration of 0.5 mg/ml and 1:2 dilutions therefrom, unless otherwise specified. For each antibiotic three parallel tests were performed using all the antibiotic dilutions and, additionally, positive and negative control experiments. […] 100 µl of dilutions of the nanobacteria inoculum were added to all wells except the negative controls. The plates were incubated at mammalian cell culture conditions (37° Celsius, 5% carbon dioxide, 95% humid air). The absorbance values at 650 nm were recorded by using an ELISA reader at the start, and at 4, 8, 12, 14 days. […] Calculations were based on absorbance curves where absorbance was plotted against concentration of the antibiotic.

CCC[C@@H]1C[C@@H](C(=O)N[C@@H]([C@H]2O[C@H](SC)[C@H](O)[C@@H](O)[C@H]2O)[C@H](C)Cl)N(C)C1 [Clindamycin]
IC50: > 500 µg/mL
